No constants are given. Whether binding was seen depends on the method and setting. Some entries that bind do so weakly or less than the wild type. Sequences can lack the tags named with a protein.

Chains of the proteins cited; added tags and fusions are not shown. Lines headed by an entry give the natural chain unless they say otherwise; changes in a name come on top.
UniProt P53708: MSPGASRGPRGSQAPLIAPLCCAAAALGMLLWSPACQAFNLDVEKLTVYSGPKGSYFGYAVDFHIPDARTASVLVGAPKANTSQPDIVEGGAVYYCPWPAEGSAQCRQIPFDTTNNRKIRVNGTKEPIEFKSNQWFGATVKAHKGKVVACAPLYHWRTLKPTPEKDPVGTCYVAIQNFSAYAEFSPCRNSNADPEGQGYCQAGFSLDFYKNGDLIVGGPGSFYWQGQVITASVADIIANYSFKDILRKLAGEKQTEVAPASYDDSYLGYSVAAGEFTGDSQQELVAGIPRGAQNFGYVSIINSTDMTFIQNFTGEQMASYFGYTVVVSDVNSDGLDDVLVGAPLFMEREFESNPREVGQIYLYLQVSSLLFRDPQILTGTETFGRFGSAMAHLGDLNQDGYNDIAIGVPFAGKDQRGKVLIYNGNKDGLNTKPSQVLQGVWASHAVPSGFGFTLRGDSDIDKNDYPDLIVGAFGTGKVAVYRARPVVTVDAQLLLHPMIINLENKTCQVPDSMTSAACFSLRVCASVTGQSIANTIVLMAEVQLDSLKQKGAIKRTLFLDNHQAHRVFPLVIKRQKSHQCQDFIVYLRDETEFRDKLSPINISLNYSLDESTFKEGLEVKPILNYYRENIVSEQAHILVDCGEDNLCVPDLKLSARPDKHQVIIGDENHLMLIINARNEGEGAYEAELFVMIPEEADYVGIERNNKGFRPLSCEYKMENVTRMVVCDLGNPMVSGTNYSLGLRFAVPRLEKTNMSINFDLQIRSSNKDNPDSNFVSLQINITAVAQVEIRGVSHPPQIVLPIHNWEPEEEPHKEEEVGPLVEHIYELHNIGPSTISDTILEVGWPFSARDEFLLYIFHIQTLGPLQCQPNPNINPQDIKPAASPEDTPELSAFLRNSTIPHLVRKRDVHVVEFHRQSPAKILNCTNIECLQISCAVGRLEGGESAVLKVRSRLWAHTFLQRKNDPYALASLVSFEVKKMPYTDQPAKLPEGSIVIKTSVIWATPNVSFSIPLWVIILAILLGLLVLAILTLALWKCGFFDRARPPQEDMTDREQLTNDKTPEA
UniProt P06756: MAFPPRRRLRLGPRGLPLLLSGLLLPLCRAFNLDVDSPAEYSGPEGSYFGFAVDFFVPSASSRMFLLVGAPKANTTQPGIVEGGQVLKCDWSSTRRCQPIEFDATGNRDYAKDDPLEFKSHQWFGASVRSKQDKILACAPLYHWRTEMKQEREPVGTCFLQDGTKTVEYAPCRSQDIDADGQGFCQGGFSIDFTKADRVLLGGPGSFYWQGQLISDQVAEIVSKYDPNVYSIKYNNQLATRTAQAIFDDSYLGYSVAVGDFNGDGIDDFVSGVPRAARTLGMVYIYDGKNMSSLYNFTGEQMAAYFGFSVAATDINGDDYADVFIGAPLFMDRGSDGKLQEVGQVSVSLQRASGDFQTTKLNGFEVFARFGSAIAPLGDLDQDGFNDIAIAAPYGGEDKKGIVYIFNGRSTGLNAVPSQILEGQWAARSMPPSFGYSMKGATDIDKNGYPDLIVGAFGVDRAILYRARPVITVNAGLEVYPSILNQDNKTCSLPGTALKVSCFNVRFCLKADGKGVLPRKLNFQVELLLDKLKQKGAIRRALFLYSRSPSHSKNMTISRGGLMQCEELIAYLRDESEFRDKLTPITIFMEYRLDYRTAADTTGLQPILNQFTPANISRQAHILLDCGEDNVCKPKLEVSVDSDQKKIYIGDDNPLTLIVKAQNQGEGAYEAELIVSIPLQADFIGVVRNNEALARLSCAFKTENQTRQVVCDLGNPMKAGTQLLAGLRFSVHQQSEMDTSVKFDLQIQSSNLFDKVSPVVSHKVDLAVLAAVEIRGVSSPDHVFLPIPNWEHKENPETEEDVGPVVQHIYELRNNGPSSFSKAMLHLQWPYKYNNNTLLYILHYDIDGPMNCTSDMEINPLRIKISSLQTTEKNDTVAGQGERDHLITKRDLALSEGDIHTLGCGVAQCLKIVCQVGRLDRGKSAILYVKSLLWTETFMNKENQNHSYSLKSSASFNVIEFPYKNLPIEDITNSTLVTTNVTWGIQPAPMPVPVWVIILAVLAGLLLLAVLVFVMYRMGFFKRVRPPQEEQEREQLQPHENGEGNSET

The assay concerns the target T1, recombinant Mfge8 (Milk fat Globule Epidermal Growth Factor like 8), fusion protein of full length Mfge8 and a human Fc domain (UniProt P21956).
T1 sequence: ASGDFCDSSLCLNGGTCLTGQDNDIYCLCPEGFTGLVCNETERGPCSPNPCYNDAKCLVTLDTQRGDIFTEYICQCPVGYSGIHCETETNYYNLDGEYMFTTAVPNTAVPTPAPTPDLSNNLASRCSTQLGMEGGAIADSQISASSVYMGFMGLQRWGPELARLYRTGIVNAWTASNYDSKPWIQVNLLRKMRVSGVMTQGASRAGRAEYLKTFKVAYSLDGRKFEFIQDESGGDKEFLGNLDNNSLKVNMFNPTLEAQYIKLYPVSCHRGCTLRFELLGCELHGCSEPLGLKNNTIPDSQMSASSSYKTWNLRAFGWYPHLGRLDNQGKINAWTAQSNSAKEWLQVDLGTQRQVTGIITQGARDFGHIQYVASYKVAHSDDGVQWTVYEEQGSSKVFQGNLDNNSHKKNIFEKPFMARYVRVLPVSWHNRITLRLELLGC
The assay is described as follows: cell adhesion assay; 1 x 10^5 cells seeded into wells of 96 well MaxiSorp plates coated with rMfge8 (5 µg/ml or a dose range), 1 hr at 37°C; attached cells stained with crystal violet, optical density at 595 nm; blocking antibodies (5 µg/ml) 15 min on ice before plating; only the target purified.
For “α8β1 integrin on primary human gastric smooth muscle cells (from UniProt P53708 39-1063; P05556 21-798) (receptor)”, the binding entry is reported as “binds”. As for “α8β1 integrin on α8-transfected SW480 cells (from UniProt P53708 39-1063; P05556 21-798) (receptor)”, the binding entry is reported as “binds”. Then “αvβ3 integrin on β3-transfected SW480 cells (from UniProt P06756 31-1048; P05106 27-788) (receptor)”, with “binds”; and “αvβ5 integrin on mock-transfected control SW480 cells (from UniProt P06756 31-1048; P18084 24-799) (receptor)”, with “binds”; and “αvβ5 integrin on primary human gastric smooth muscle cells (from UniProt P06756 31-1048; P18084 24-799) (receptor)”, with “binds”.

The values above are taken from paper PMC4868538.
